From paper PMC12554172, “Systematic analysis of the RGS2 degron reveals characteristics of substrate recognition by the F-box protein FBXO44” (The Journal of Biological Chemistry, 2025)
No constants are given. Whether binding was seen depends on the method and setting. Some entries that bind do so weakly or less than the wild type. Sequences can lack the tags named with a protein.

Protein sequences, listed by entry. Tags and fused reporters are not part of them. Lines headed by an entry give the natural chain unless they say otherwise; changes in a name come on top.
UniProt P41220: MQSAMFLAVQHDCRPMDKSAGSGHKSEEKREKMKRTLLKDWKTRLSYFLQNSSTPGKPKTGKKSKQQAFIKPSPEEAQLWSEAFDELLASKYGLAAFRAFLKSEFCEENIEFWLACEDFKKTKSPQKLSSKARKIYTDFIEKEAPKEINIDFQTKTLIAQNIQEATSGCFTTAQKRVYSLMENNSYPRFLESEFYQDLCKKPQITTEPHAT

Tests used:
Assay in all cases: peptide or protein array; custom PEPperPRINT peptide microarray (each position of RGS2^5–16 substituted by every other amino acid; C-terminal truncations); 2 μg/ml purified FLAG-FBXO44^FBA in staining buffer (PBS, 0.005% Tween, pH 7.4, 10% Rockland blocking buffer) overnight at 4 °C; anti-FLAG DyLight800; signal normalised to the original residue; both purified
[1] = molecular target: T1, RGS2^5–16 peptide D12R (UniProt P41220)
T1 sequence (peptide): MFLAVQHRCRPM

[2] = molecular target: T2, RGS2^5–16 peptide H11R (UniProt P41220)
T2 sequence (peptide): MFLAVQRDCRPM

[3] = molecular target: T3, RGS2^5–16 peptide, Asp^12 to Cys (UniProt P41220)
T3 sequence (peptide): MFLAVQHCCRPM

[4] = molecular target: T4, RGS2^5–16 peptide, Asp^12 to Gln (UniProt P41220)
T4 sequence (peptide): MFLAVQHQCRPM

[5] = molecular target: T5, RGS2^5–16 peptide, Asp^12 to Glu (UniProt P41220)
T5 sequence (peptide): MFLAVQHECRPM

[6] = molecular target: T6, RGS2^5–16 peptide, Asp^12 to Leu (UniProt P41220)
T6 sequence (peptide): MFLAVQHLCRPM

[7] = molecular target: T7, RGS2^5–16 peptide, Asp^12 to Pro (UniProt P41220)
T7 sequence (peptide): MFLAVQHPCRPM

[8] = molecular target: T8, RGS2^5–16 peptide, Asp^12 to Thr (UniProt P41220)
T8 sequence (peptide): MFLAVQHTCRPM

[9] = molecular target: T9, RGS2^5–16 peptide, Asp^12 to Trp (UniProt P41220)
T9 sequence (peptide): MFLAVQHWCRPM

[10] = molecular target: T10, RGS2^5–16 peptide, Asp^12 to Val (UniProt P41220)
T10 sequence (peptide): MFLAVQHVCRPM

[11] = molecular target: T11, RGS2^5–16 peptide, Cys^13 to Arg (UniProt P41220)
T11 sequence (peptide): MFLAVQHDRRPM

[12] = molecular target: T12, RGS2^5–16 peptide, Cys^13 to Lys (UniProt P41220)
T12 sequence (peptide): MFLAVQHDKRPM

[13] = molecular target: T13, RGS2^5–16 peptide, Met^16 to Arg (UniProt P41220)
T13 sequence (peptide): MFLAVQHDCRPR

Measured: binding

B1: FLAG-tagged FBXO44 FBA domain (FBXO44^FBA) (domain or fragment, UniProt Q9H4M3-1 71-252)
chain: FYFLRSLHRNLLHNPCAEEGFEFWSLDVNGGDEWKVEDLSRDQRKEFPNDQVKKYFVTSYYTCLKSQVVDLKAEGYWEELMDTTRPDIEVKDWFAARPDCGSKYQLCVQLLSSAHAPLGTFQPDPATIQQKSDAKWREVSHTFSNYPPGVRYIWFQHGGVDTHYWAGWYGPRVTNSSITIGP
binds: all assays above
